This test has as its target SEC23B wild type in the anti-FLAG pull-down of Figure S9D,E, Q15437. The test can be described thus: co-IP; printed as 'anti-FLAG pull-down assay'; SEC23B wild type against K81R (Figure S9D,E); further conditions not shown. As to conditions: remark: other sources report otherwise.

Results are given in words; binding and its absence hold for the method and conditions named. In cells and extracts the contact can be indirect. Some results given as binding are weak or reduced against the parent protein; the word gives no strength. Where a sequence is shown, tags or fusion partners need not be part of it.

B1: SEC13 in the anti-FLAG pull-down of Figure S9D,E, P55735 1-322 (protein)
chain: MVSVINTVDTSHEDMIHDAQMDYYGTRLATCSSDRSVKIFDVRNGGQILIADLRGHEGPVWQVAWAHPMYGNILASCSYDRKVIIWREENGTWEKSHEHAGHDSSVNSVCWAPHDYGLILACGSSDGAISLLTYTGEGQWEVKKINNAHTIGCNAVSWAPAVVPGSLIDHPSGQKPNYIKRFASGGCDNLIKLWKEEEDGQWKEEQKLEAHSDWVRDVAWAPSIGLPTSTIASCSQDGRVFIWTCDDASSNTWSPKLLHKFNDVVWHVSWSITANILAVSGGDNKVTLWKESVDGQWVCISDVNKGQGSVSASVTEGQQNEQ
Regarding B1, the binding result was “binds”.

The values above are taken from paper PMC10602526.
